Experimental data: PubChem BioAssay AID1259254 (NCATS, 2017)
The whole screen tested about 59,000 reagents; below is a part drawn at random. About 1,550 of all reagents (2.6%) count as active. 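G2 share is only a proxy for re-replication; each gene was hit by three separate siRNAs, and active genes were retested.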 The numbers tell different reagents against one gene apart. Not all columns of the deposit are shown. Not given: the amount of reagent.

- Assay: 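Finding genes that stop cells copying their DNA twice in one cycle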 (primary screen)
- System: human HCT116 colorectal cancer cells
- Reagents: single siRNA against human genes
- Duration: 3 days
- Detection: 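Imaged Hoechst DNA stain sorts each cell into a cycle phase by DNA amount; per plate, G2 fraction set to 0% for non-targeting and 100% for GMNN siRNA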
- Direction: G2 robust z-score: higher = more G2 cells, more excess DNA replication
- Active means: 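An siRNA counts as active if its G2 robust z-score lies at least 5 MADs above the screen median; here such calls match roughly 38% of GMNN control or more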

gene	reagent no.	G2 robust z-score	outcome
RBM4	1	2.87	inactive
RBM4	2	1.16	inactive
RBM4	3	-0.795	inactive
SFTPB	1	0.2	inactive
SFTPB	2	0.927	inactive
SFTPB	3	0.59	inactive
PHKA1	1	-0.895	inactive
PHKA1	2	1.37	inactive
PHKA1	3	4.28	inactive
KDM1B	1	0.939	inactive
KDM1B	2	-0.0566	inactive
KDM1B	3	0.373	inactive
OVOL2	1	0.812	inactive
OVOL2	2	-0.694	inactive
OVOL2	3	-0.166	inactive
EIF4EBP2	1	2.77	inactive
EIF4EBP2	2	0.528	inactive
EIF4EBP2	3	-0.514	inactive
CEACAM4	1	2.65	inactive
CEACAM4	2	0.856	inactive
CEACAM4	3	0.315	inactive
NUPR1	1	-0.611	inactive
NUPR1	2	0.0383	inactive
NUPR1	3	0.0795	inactive
ORMDL2	1	5.52	active
ORMDL2	2	-0.603	inactive
ORMDL2	3	-0.637	inactive
UBE2V2	1	1.22	inactive
UBE2V2	2	3.7	inactive
UBE2V2	3	2	inactive
DENND2B	1	3.67	inactive
DENND2B	2	1.37	inactive
DENND2B	3	1.08	inactive
TMEM183A	1	-0.887	inactive
TMEM183A	2	1.86	inactive
TMEM183A	3	0.307	inactive
RARS2	1	-0.0338	inactive
RARS2	2	-1.07	inactive
RARS2	3	-0.507	inactive

Records listed above with an active call (1):
gene	reagent no.	G2 robust z-score	outcome
ORMDL2	1	5.52	active

The results go on:
gene	reagent no.	G2 robust z-score	outcome
C20orf144	1	-0.337	inactive
C20orf144	2	-0.426	inactive
C20orf144	3	1.61	inactive
SMARCB1	1	10.7	active
SMARCB1	2	-0.998	inactive
SMARCB1	3	-0.475	inactive
OR9A2	1	1.21	inactive
OR9A2	2	-0.427	inactive
OR9A2	3	-0.332	inactive
ESS2	1	-0.899	inactive
ESS2	2	-0.139	inactive
ESS2	3	1.47	inactive
CPM	1	-0.456	inactive
CPM	2	0.176	inactive
CPM	3	-0.072	inactive
ZNF492	1	-0.451	inactive
ZNF492	2	-0.412	inactive
ZNF492	3	1.5	inactive
EPPIN	1	-1.06	inactive
EPPIN	2	-0.221	inactive
EPPIN	3	2.51	inactive
UQCC6	1	0.0552	inactive
UQCC6	2	-0.176	inactive
UQCC6	3	-0.331	inactive
HSFY1	1	1.2	inactive
HSFY1	2	1.99	inactive
HSFY1	3	0.142	inactive
TET1P1	1	-0.181	inactive
TET1P1	2	-0.667	inactive
TET1P1	3	3.09	inactive
